Measured values published in the supplement of paper PMC10849652.
Some of the results follow.

Chains of the proteins cited; added tags and fusions are not shown. Lines headed by an entry give the natural chain unless they say otherwise; changes in a name come on top.
UniProt Q15714: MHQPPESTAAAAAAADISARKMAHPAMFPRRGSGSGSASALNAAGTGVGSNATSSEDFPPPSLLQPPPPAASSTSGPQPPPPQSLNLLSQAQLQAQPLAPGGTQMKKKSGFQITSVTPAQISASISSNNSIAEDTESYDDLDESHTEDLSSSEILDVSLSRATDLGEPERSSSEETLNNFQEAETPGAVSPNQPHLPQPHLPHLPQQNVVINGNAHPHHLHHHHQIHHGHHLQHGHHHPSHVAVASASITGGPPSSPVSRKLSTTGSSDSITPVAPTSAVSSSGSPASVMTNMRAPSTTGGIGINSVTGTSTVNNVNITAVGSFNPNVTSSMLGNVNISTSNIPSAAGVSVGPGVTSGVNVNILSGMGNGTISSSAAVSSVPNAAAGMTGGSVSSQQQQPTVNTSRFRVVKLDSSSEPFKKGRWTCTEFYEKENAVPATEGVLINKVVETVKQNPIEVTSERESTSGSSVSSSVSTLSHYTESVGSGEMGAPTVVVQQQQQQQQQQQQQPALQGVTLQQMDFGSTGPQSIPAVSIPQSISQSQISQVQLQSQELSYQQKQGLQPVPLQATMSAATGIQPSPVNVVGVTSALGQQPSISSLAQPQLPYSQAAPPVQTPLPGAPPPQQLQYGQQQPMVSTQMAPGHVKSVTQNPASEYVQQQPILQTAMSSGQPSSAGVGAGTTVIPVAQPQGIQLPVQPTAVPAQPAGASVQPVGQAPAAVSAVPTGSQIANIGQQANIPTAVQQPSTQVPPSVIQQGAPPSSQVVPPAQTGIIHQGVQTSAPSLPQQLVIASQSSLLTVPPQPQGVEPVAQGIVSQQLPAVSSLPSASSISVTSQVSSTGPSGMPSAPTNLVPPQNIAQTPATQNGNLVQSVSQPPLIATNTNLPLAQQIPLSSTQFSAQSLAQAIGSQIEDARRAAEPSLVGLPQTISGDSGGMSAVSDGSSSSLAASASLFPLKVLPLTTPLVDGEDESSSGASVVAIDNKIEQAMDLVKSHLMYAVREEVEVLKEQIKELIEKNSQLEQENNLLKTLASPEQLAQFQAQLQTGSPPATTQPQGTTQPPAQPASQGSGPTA
UniProt Q8IUR0, whole entry, looked up: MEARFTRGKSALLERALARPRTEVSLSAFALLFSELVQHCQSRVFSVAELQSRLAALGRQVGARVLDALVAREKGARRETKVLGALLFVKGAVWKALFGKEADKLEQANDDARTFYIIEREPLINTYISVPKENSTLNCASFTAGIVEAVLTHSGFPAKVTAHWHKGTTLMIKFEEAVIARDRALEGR
UniProt Q13114: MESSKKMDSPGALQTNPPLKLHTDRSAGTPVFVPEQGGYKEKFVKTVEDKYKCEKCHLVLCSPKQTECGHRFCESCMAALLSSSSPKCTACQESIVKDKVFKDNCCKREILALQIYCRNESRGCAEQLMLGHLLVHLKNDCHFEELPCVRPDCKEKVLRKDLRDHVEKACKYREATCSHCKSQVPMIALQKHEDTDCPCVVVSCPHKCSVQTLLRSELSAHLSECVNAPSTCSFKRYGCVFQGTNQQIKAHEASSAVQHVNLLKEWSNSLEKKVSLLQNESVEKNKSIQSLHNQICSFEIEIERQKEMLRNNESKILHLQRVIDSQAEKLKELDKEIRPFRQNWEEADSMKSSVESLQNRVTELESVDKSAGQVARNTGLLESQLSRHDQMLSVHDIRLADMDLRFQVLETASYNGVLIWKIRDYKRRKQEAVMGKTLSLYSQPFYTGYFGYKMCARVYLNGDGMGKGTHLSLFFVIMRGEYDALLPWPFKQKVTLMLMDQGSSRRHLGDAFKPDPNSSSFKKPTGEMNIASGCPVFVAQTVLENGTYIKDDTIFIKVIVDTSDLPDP
UniProt Q86TV6: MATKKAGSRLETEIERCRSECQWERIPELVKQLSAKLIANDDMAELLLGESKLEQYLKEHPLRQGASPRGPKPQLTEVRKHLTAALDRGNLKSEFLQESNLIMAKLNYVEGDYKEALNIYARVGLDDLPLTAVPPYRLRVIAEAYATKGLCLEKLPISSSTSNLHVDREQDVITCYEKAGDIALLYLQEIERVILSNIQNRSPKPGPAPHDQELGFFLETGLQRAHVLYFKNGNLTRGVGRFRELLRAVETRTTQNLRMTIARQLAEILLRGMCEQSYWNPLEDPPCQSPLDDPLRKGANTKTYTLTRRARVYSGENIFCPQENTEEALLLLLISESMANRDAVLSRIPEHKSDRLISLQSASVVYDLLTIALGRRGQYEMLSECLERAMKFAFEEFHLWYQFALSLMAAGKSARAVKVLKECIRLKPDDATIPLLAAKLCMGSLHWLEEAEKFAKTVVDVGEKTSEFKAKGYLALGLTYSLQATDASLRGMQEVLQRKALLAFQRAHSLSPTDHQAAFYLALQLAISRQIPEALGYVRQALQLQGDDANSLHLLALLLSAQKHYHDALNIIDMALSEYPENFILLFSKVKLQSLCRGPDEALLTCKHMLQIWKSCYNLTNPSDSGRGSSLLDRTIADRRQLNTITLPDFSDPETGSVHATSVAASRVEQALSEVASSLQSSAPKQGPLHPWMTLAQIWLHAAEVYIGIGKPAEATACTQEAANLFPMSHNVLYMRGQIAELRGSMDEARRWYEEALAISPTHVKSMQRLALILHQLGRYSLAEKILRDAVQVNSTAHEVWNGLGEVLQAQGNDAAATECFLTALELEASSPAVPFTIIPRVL
UniProt Q8NG11: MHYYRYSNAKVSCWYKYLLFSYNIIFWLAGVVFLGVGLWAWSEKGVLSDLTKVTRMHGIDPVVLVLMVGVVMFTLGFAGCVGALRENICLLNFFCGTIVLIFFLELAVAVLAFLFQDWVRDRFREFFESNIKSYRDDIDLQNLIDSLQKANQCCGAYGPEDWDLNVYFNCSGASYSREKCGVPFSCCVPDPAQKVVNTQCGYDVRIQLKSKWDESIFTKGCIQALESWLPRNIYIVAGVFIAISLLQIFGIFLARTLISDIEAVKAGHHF
UniProt Q15631: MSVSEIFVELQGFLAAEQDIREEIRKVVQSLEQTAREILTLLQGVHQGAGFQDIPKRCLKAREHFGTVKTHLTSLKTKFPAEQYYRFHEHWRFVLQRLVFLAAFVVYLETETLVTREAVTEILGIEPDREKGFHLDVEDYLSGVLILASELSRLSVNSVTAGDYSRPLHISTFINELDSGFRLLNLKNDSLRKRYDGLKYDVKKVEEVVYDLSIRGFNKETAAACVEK
UniProt Q15650: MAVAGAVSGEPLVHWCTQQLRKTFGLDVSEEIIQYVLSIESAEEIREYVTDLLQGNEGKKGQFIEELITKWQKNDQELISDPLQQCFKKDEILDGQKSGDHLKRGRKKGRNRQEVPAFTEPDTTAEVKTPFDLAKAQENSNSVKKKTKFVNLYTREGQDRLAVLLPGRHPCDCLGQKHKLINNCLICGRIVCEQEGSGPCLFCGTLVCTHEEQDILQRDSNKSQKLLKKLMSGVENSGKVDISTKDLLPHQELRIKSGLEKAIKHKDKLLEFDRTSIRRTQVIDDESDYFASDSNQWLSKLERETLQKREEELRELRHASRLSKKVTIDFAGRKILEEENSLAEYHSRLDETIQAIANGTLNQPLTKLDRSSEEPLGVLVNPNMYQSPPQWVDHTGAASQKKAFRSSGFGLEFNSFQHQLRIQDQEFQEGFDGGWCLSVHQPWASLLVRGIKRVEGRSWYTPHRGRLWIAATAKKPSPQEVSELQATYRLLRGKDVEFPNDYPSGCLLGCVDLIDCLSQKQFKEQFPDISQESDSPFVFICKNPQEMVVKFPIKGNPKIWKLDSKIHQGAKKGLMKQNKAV
UniProt O14545: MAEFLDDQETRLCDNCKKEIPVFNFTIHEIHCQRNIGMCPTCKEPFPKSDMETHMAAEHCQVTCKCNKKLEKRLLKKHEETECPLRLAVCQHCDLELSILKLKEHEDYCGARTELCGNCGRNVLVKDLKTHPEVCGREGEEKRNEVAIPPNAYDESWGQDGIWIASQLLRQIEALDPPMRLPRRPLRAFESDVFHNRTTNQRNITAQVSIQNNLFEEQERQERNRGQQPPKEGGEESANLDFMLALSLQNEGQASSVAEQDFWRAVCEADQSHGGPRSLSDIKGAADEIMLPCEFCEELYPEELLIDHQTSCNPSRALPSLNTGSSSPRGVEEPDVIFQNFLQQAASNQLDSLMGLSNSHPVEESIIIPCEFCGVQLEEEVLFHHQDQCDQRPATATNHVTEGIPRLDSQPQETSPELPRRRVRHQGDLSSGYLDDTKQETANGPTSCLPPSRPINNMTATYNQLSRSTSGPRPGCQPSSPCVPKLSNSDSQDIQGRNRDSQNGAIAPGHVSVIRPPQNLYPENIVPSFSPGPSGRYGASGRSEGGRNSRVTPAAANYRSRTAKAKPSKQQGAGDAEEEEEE
UniProt Q99598: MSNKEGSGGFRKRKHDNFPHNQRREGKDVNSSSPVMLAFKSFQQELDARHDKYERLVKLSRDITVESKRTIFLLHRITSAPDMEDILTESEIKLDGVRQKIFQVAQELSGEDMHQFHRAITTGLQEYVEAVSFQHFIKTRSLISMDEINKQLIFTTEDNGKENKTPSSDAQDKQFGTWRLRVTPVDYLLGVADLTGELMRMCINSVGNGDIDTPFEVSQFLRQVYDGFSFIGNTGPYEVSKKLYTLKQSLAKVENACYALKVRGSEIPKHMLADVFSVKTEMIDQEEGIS
UniProt Q96AE7: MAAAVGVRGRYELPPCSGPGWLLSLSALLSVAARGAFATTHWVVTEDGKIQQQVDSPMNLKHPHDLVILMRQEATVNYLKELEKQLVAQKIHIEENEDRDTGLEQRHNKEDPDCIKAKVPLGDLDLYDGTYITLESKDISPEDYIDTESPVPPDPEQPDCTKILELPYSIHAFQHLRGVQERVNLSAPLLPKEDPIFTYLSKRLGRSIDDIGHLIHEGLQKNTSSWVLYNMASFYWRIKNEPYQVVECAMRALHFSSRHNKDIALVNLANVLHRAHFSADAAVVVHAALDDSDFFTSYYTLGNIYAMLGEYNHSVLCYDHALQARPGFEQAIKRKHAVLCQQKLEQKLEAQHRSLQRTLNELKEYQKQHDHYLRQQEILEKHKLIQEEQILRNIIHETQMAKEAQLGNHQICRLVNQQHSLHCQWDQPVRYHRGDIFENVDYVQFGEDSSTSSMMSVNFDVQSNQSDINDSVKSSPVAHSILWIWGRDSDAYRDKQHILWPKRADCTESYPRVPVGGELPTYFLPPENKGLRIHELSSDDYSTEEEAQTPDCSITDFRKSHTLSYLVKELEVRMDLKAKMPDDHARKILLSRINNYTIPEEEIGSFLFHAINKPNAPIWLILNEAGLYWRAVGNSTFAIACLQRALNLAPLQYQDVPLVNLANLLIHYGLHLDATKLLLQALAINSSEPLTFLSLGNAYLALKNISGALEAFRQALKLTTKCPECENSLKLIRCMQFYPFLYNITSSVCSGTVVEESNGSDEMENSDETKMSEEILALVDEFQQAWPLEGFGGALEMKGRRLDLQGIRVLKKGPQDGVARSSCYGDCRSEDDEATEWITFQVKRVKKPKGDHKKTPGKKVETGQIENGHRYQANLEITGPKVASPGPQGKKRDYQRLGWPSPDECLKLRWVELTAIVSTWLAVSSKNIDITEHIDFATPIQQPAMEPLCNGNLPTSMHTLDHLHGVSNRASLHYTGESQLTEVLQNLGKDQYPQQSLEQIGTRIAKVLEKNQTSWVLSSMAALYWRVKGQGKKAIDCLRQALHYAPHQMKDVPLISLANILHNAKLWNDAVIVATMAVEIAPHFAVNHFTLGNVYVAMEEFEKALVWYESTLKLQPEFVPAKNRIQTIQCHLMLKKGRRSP
UniProt P19474, whole entry, looked up: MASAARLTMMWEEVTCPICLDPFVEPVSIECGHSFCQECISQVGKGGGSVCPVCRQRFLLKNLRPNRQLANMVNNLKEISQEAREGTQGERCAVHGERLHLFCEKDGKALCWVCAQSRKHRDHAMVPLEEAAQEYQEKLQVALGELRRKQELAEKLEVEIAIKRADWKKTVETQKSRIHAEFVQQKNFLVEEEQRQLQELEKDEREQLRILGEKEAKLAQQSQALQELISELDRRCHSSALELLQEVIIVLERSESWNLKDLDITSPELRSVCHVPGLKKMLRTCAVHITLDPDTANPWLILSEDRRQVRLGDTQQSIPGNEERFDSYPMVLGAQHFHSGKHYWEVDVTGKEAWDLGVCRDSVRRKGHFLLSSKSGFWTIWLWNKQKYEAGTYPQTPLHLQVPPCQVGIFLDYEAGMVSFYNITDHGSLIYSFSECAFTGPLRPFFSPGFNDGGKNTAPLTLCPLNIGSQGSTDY
UniProt Q9BSV6: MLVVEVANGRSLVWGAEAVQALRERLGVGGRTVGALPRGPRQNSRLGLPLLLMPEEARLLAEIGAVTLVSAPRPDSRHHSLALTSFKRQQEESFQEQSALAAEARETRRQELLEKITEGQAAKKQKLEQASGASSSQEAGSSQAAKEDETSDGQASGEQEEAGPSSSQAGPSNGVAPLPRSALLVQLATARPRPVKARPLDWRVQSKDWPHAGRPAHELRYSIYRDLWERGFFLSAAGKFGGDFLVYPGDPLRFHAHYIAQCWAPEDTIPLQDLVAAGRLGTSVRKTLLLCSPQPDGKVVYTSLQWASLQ

How the values were obtained:
Assay in all cases: log2 fold change, soluble protein after heating vs DMSO (PISA); higher = thermal stabilisation; K562 lysate, 10 uM; active = over 0.2 and 3.5 SD of the protein, either way, in both replicates (recomputed)
alvocidib = compound: CN1CC[C@H](c2c(O)cc(O)c3c(=O)cc(-c4ccccc4Cl)oc23)[C@H](O)C1 [alvocidib]
Procedure, shortened: (§1)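 Soluble protein was defined as the supernatant remaining after 21,000xg for 90 min, following pooling of heated aliquots and adjustment to 0.5% NP-40 at 4°C. Before that, crude K562 extract at 1 mg/mL protein in PBS pH 7.4 with 1 mM MgCl2 was treated with 10 μM compound for 30 min and heated for 3 min across 48°C-58°C. Quantification used TMTpro 16plex LC-MS/MS with channel sums equalised, and values are log-two fold changes in thermal stability relative to solvent controls from duplicates.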

Tubastatin A = compound: CN1CCc2c(c3ccccc3n2Cc2ccc(C(=O)NO)cc2)C1 [Tubastatin A]
Procedure, shortened: as §1

[1] = compound: CNC(=O)C1=CC=CC=C1NC2=NC(=NC=C2Cl)NC3=C(C=C(C=C3)N4CCOCC4)OC
Procedure, shortened: as §1

defactinib = compound: CNC(=O)c1ccc(Nc2ncc(C(F)(F)F)c(NCc3nccnc3N(C)S(C)(=O)=O)n2)cc1 [defactinib]
Procedure, shortened: as §1

[2] = compound: CNc1nc(-c2ccc3c(N)n[nH]c3c2)cc(N2C[C@@H](C(=O)NC3CCCCC3)CC[C@H]2C)n1
Procedure, shortened: as §1

encorafenib = compound: COC(=O)N[C@@H](C)CNc1nccc(-c2cn(C(C)C)nc2-c2cc(Cl)cc(NS(C)(=O)=O)c2F)n1 [encorafenib]
Procedure, shortened: as §1

[3] = compound: COC(=O)[C@H](CCSC)NC(=O)C1=C(C=C(C=C1)NC[C@H](CS)N)C2=CC=CC=C2
Procedure, shortened: as §1

alisertib = compound: COc1cc(Nc2ncc3c(n2)-c2ccc(Cl)cc2C(c2c(F)cccc2OC)=NC3)ccc1C(=O)O [alisertib]
Procedure, shortened: as §1

[4] = compound: COc1cc2nc(-c3cc(F)ccc3O)nc(N[C@@H]3CNC[C@H]3C(C)(C)O)c2cc1OC
Procedure, shortened: as §1

gefitinib = compound: COc1cc2ncnc(Nc3ccc(F)c(Cl)c3)c2cc1OCCCN1CCOCC1 [gefitinib]
Procedure, shortened: as §1

lapatinib = compound: CS(=O)(=O)CCNCc1ccc(-c2ccc3ncnc(Nc4ccc(OCc5cccc(F)c5)c(Cl)c4)c3c2)o1 [lapatinib]
Procedure, shortened: as §1

pictilisib = compound: CS(=O)(=O)N1CCN(Cc2cc3nc(-c4cccc5[nH]ncc45)nc(N4CCOCC4)c3s2)CC1 [pictilisib]
Procedure, shortened: as §1

crizotinib = compound: C[C@@H](Oc1cc(-c2cnn(C3CCNCC3)c2)cnc1N)c1c(Cl)ccc(F)c1Cl [crizotinib]
Procedure, shortened: as §1

[5] = compound: C[C@H](C1=CC=C(C=C1)C(=O)NC2=C3C=CNC3=NC=C2)N
Procedure, shortened: as §1

duvelisib = compound: C[C@H](Nc1ncnc2nc[nH]c12)c1cc2cccc(Cl)c2c(=O)n1-c1ccccc1 [duvelisib]
Procedure, shortened: as §1

gandotinib = compound: Cc1cc(Nc2cc(CN3CCOCC3)c3nc(C)c(Cc4ccc(Cl)cc4F)n3n2)n[nH]1 [gandotinib]
Procedure, shortened: as §1

tozasertib = compound: Cc1cc(Nc2cc(N3CCN(C)CC3)nc(Sc3ccc(NC(=O)C4CC4)cc3)n2)n[nH]1 [tozasertib]
Procedure, shortened: as §1

doramapimod = compound: Cc1ccc(-n2nc(C(C)(C)C)cc2NC(=O)Nc2ccc(OCCN3CCOCC3)c3ccccc23)cc1 [doramapimod]
Procedure, shortened: as §1

bafetinib = compound: Cc1ccc(NC(=O)c2ccc(CN3CC[C@H](N(C)C)C3)c(C(F)(F)F)c2)cc1Nc1nccc(-c2cncnc2)n1 [bafetinib]
Procedure, shortened: as §1

[6] = compound: Cc1cccc(CC(=O)N2CCc3c2ccc(-c2cn(C)c4ncnc(N)c24)c3F)n1
Procedure, shortened: as §1

Measured: log2 fold change

TSC22D1 (UniProt Q15714)
inactive: alvocidib -0.03 | Tubastatin A 0.006 | [1] -0.096 | defactinib -0.05 | [2] 0.014 | encorafenib 0.02 | [3] 0.003 | alisertib -0.002 | [4] 0.017 | gefitinib -0.007 | lapatinib -0.029 | pictilisib -0.038 | crizotinib -0.027 | [5] -0.034 | duvelisib 0.022 | gandotinib 0.03 | tozasertib -0.003 | doramapimod 0.006 | bafetinib -0.046 | [6] -0.023

TRAPPC9 isoform 2 (UniProt Q96Q05)
inactive: alvocidib -0.017 | Tubastatin A -0.128 | [1] 0.002 | defactinib -0.011 | [2] -0.075 | encorafenib 0.022 | [3] -0.015 | alisertib -0.036 | [4] 0.021 | gefitinib -0.017 | lapatinib -0.02 | pictilisib 0.012 | crizotinib -0.084 | [5] -0.053 | duvelisib -0.038 | gandotinib -0.037 | tozasertib 0.037 | doramapimod 0.029 | bafetinib -0.026 | [6] 0.021

TSSC4 (UniProt Q9Y5U2)
inactive: alvocidib -0.015 | Tubastatin A 0.066 | [1] 0.028 | defactinib 0.031 | [2] 0.062 | encorafenib 0.061 | [3] -0.098 | alisertib 0.077 | [4] 0.009 | gefitinib 0.089 | lapatinib 0.024 | pictilisib 0.029 | crizotinib -0.067 | [5] -0.059 | duvelisib 0.025 | gandotinib 0.084 | tozasertib -0.106 | doramapimod -0.015 | bafetinib -0.049 | [6] 0.05

TRAPPC5 (UniProt Q8IUR0)
inactive: alvocidib 0.021 | Tubastatin A -0.115 | [1] -0.027 | defactinib 0.051 | [2] -0.047 | encorafenib 0.002 | [3] -0.018 | alisertib 0.023 | [4] 0.028 | gefitinib 0.021 | lapatinib -0.03 | pictilisib 0.013 | crizotinib 0.014 | [5] -0.001 | duvelisib 0.049 | gandotinib -0.108 | tozasertib -0.027 | doramapimod 0.023 | bafetinib -0.078 | [6] 0.038

TRAF3 (UniProt Q13114)
inactive: alvocidib -0.01 | Tubastatin A 0.061 | [1] 0.084 | defactinib -0.149 | [2] 0.141 | encorafenib 0.076 | [3] -0.055 | alisertib -0.15 | [4] 0.013 | gefitinib 0.102 | lapatinib -0.023 | pictilisib 0.056 | crizotinib -0.042 | [5] -0.13 | duvelisib -0.002 | gandotinib 0.089 | tozasertib 0.076 | doramapimod -0.058 | bafetinib -0.089 | [6] 0.048

TTC7B isoform 2 (UniProt Q86TV6)
inactive: alvocidib 0.061 | Tubastatin A -0.162 | [1] 0.1 | defactinib 0.04 | [2] 0.076 | encorafenib 0.041 | [3] -0.04 | alisertib 0.012 | [4] 0 | gefitinib -0.087 | lapatinib -0.039 | pictilisib 0.02 | crizotinib 0.014 | [5] 0.042 | duvelisib 0.092 | gandotinib -0.012 | tozasertib 0.037 | doramapimod 0.009 | bafetinib -0.051 | [6] 0

TSPAN14 (UniProt Q8NG11)
inactive: alvocidib -0.035 | Tubastatin A 0.003 | [1] 0.049 | defactinib 0.01 | [2] 0.016 | encorafenib 0.037 | [3] -0.052 | alisertib 0.02 | [4] 0.004 | gefitinib 0.004 | lapatinib -0.001 | pictilisib -0.059 | crizotinib -0.08 | [5] -0.087 | duvelisib -0.022 | gandotinib 0.112 | tozasertib 0.042 | doramapimod 0.076 | bafetinib -0.063 | [6] 0.063

Reprinted from above (three entries):
TSSC4 (UniProt Q9Y5U2)
inactive: alvocidib -0.015 | Tubastatin A 0.066 | [1] 0.028 | defactinib 0.031 | [2] 0.062 | encorafenib 0.061 | [3] -0.098 | alisertib 0.077 | [4] 0.009 | gefitinib 0.089 | lapatinib 0.024 | pictilisib 0.029 | crizotinib -0.067 | [5] -0.059 | duvelisib 0.025 | gandotinib 0.084 | tozasertib -0.106 | doramapimod -0.015 | bafetinib -0.049 | [6] 0.05

TRAPPC5 (UniProt Q8IUR0)
inactive: alvocidib 0.021 | Tubastatin A -0.115 | [1] -0.027 | defactinib 0.051 | [2] -0.047 | encorafenib 0.002 | [3] -0.018 | alisertib 0.023 | [4] 0.028 | gefitinib 0.021 | lapatinib -0.03 | pictilisib 0.013 | crizotinib 0.014 | [5] -0.001 | duvelisib 0.049 | gandotinib -0.108 | tozasertib -0.027 | doramapimod 0.023 | bafetinib -0.078 | [6] 0.038

TRAF3 (UniProt Q13114)
inactive: alvocidib -0.01 | Tubastatin A 0.061 | [1] 0.084 | defactinib -0.149 | [2] 0.141 | encorafenib 0.076 | [3] -0.055 | alisertib -0.15 | [4] 0.013 | gefitinib 0.102 | lapatinib -0.023 | pictilisib 0.056 | crizotinib -0.042 | [5] -0.13 | duvelisib -0.002 | gandotinib 0.089 | tozasertib 0.076 | doramapimod -0.058 | bafetinib -0.089 | [6] 0.048

Remaining list, next part.

TSN (UniProt Q15631)
inactive: alvocidib -0.021 | Tubastatin A 0.047 | [1] -0.002 | defactinib -0.03 | [2] 0.048 | encorafenib -0.015 | [3] -0.014 | alisertib 0.031 | [4] 0.032 | gefitinib 0.019 | lapatinib -0.033 | pictilisib 0.001 | crizotinib 0.018 | [5] -0.113 | duvelisib -0.018 | gandotinib 0.085 | tozasertib 0.002 | doramapimod -0.032 | bafetinib 0.022 | [6] 0.006

TRMU (UniProt O75648)
inactive: alvocidib -0.003 | Tubastatin A -0.042 | [1] -0.021 | defactinib -0.023 | [2] -0.071 | encorafenib 0.051 | [3] -0.028 | alisertib 0.069 | [4] 0.025 | gefitinib -0.029 | lapatinib -0.026 | pictilisib 0.104 | crizotinib -0.097 | [5] 0.015 | duvelisib -0.037 | gandotinib -0.143 | tozasertib 0.045 | doramapimod 0.047 | bafetinib -0.146 | [6] -0.055

TRIP4 (UniProt Q15650)
inactive: alvocidib -0.01 | Tubastatin A -0.027 | [1] 0.004 | defactinib -0.171 | [2] 0.066 | encorafenib 0.003 | [3] -0.073 | alisertib -0.006 | [4] 0 | gefitinib -0.037 | lapatinib 0.004 | pictilisib -0.003 | crizotinib -0.037 | [5] -0.031 | duvelisib -0.019 | gandotinib 0.009 | tozasertib 0.044 | doramapimod 0.027 | bafetinib -0.06 | [6] 0.079

TRAFD1 (UniProt O14545)
inactive: alvocidib -0.004 | Tubastatin A 0.102 | [1] 0.063 | defactinib 0.005 | [2] -0.011 | encorafenib 0.053 | [3] -0.104 | alisertib 0.009 | [4] -0.038 | gefitinib -0.202 | lapatinib 0.028 | pictilisib 0.007 | crizotinib -0.003 | [5] -0.003 | duvelisib -0.008 | gandotinib -0.009 | tozasertib 0.056 | doramapimod 0.05 | bafetinib -0.05 | [6] 0.031

TSNAX (UniProt Q99598)
inactive: alvocidib 0.008 | Tubastatin A 0.06 | [1] -0.008 | defactinib -0.002 | [2] 0 | encorafenib 0.002 | [3] -0.012 | alisertib 0.005 | [4] 0.021 | gefitinib -0.005 | lapatinib -0.011 | pictilisib 0 | crizotinib 0.018 | [5] 0.003 | duvelisib 0.019 | gandotinib 0.017 | tozasertib -0.019 | doramapimod 0.017 | bafetinib 0.036 | [6] -0.014

TTC17 (UniProt Q96AE7)
inactive: alvocidib -0.025 | Tubastatin A 0.032 | [1] 0.074 | defactinib -0.039 | [2] 0.046 | encorafenib 0.118 | [3] -0.012 | alisertib -0.07 | [4] 0.041 | gefitinib 0.014 | lapatinib -0.011 | pictilisib -0.111 | crizotinib 0.009 | [5] -0.038 | duvelisib -0.025 | gandotinib 0.125 | tozasertib 0.059 | doramapimod 0.029 | bafetinib -0.045 | [6] 0.058

TRIM21 (UniProt P19474)
inactive: alvocidib 0.153 | Tubastatin A 0.1 | [1] -0.048 | defactinib 0.047 | [2] -0.005 | encorafenib 0.005 | [3] 0.254 | alisertib -0.1 | [4] 0.021 | gefitinib 0.029 | lapatinib -0.069 | pictilisib -0.14 | crizotinib 0.005 | [5] 0.29 | duvelisib 0.05 | gandotinib -0.031 | tozasertib 0.074 | doramapimod -0.092 | bafetinib -0.116 | [6] -0.12

TSEN34 (UniProt Q9BSV6)
inactive: alvocidib -0.026 | Tubastatin A -0.005 | [1] -0.014 | defactinib -0.061 | [2] 0.045 | encorafenib 0.033 | [3] 0.059 | alisertib -0.041 | [4] 0.009 | gefitinib -0.007 | lapatinib -0.029 | pictilisib -0.008 | crizotinib -0.022 | [5] 0.003 | duvelisib -0.029 | gandotinib -0.058 | tozasertib 0.038 | doramapimod 0.009 | bafetinib -0.049 | [6] 0.026

TRAPPC12 (UniProt Q8WVT3)
inactive: alvocidib -0.009 | Tubastatin A -0.079 | [1] 0.063 | defactinib 0.002 | [2] -0.039 | encorafenib 0.065 | [3] 0.057 | alisertib 0.034 | [4] 0.01 | gefitinib 0.022 | lapatinib 0.02 | pictilisib -0.017 | crizotinib -0.033 | [5] -0.017 | duvelisib 0.012 | gandotinib -0.042 | tozasertib -0.029 | doramapimod -0.036 | bafetinib -0.039 | [6] 0.048
